# Measurements reported in PubChem BioAssay AID504808 (Drosophila RNAi Screening Center, 2011)
# Aim: 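Genes whose loss lifts activity of an E2F-responsive reporter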 (primary screen)
# Cell system: Drosophila S2 cells
# Reagents: long dsRNA against Drosophila genes
# Measured: 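Firefly luciferase driven by E2F sites, normalised to Renilla luciferase on the same minimal promoter, measured by plate reader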
# Scale: E2F firefly: higher = more E2F reporter activity; Renilla normaliser: higher = more normaliser reporter signal
# Active means: 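Called active if the normalised E2F reporter went up by over 50%; the cutoff is arbitrary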
# The screen tested about 21,000 reagents; this is a random part of those with a known target gene and a result. Over the whole deposit, 18 (0.084%) are marked active. 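Raw counts without plate normalisation, one of two replicates; the ratio scores behind the calls were not deposited.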 Entries without a mark were called inactive. The numbers tell different reagents against one gene apart. A plus sign joins genes that one reagent is predicted to hit. No sequences are given here. Not stated in the record: the amount of reagent, the time to read-out.
The first 4 entries, to show the layout:
gene knocked down,reagent no.,"E2F firefly, rep 1","Renilla normaliser, rep 1"
Oatp33Eb (GeneID 34662),1,1.17e5,4506
Vps20 (GeneID 37581),1,97416,4003
Ino80 (GeneID 42314),1,1.18e5,6557
Ino80 (GeneID 42314),2,1.33e5,6807

The listing, from the start:
gene knocked down,reagent no.,"E2F firefly, rep 1","Renilla normaliser, rep 1"
Oatp33Eb (GeneID 34662),1,1.17e5,4506
Vps20 (GeneID 37581),1,97416,4003
Ino80 (GeneID 42314),1,1.18e5,6557
Ino80 (GeneID 42314),2,1.33e5,6807
Ino80 (GeneID 42314),3,1.35e5,6417
CG40045 (GeneID 3355079),1,71995,4195
RYa-R (GeneID 43253),1,1877,848
CG12848 (GeneID 50139),1,1.08e5,4844
pug (GeneID 41279),1,1.41e5,6674
CG14717 (GeneID 41412),1,1.49e5,7332
Cpr60D (GeneID 246492),1,1.06e5,4629
CG17931 + CG42446,1,1.09e5,6091
CG13409 (GeneID 42592),1,1.42e5,7362
Rca1 (GeneID 33959),1,51040,179
CG31998 (GeneID 43774),1,1868,940
CG31998 (GeneID 43774),2,43643,3622
Ugt302E1 (GeneID 53508),1,1.36e5,6984
Mccc1 (GeneID 43750),1,1863,1016
CG31156 (GeneID 42669),1,67751,3645
CG31156 (GeneID 42669),2,1.07e5,7282
CG2021 (GeneID 38229),1,89796,4061
Usp14 (GeneID 34387),1,77879,3450
tctn + B9d2,1,1.65e5,5189
sigmar (GeneID 37751),1,83361,3600
Hsp67Bc (GeneID 39071),1,87179,2159
Or43a (GeneID 35644),1,1.65e5,5197
CG14342 (GeneID 33310),1,1.64e5,6268
CG13564 (GeneID 37855),1,1.20e5,5222
CG42514 (GeneID 8674108),1,87252,4431
dsd (GeneID 43315),1,86877,2543
dsd (GeneID 43315),2,1639,964
CG5381 (GeneID 34389),1,1.63e5,5088
Arp6 (GeneID 32514),1,8083,696
Cht12 (GeneID 246535),1,1.12e5,4367
